Results are given in words; binding and its absence hold for the method and conditions named. In cells and extracts the contact can be indirect. Binding calls can cover weak binding; strength is not graded here.
T1: Glideosome-Associated Protein 45 (Toxoplasma gondii (endogenous in tachyzoites)) (UniProt Q7Z289)
T1 sequence: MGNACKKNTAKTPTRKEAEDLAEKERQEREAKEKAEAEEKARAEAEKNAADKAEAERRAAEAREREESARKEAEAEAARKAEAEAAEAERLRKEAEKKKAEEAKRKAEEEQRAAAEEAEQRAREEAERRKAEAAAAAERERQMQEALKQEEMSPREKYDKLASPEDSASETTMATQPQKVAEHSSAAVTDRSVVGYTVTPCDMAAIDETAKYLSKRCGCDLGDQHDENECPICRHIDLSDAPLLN

B1: Glideosome-Associated Protein 45 (protein, UniProt Q7Z289 1-245)
chain: T1 sequence

Key:
[1] = biological target: T1, Glideosome-Associated Protein 45 (Toxoplasma gondii (endogenous in tachyzoites)); experiment: co-IP; anti-GAP45 rabbit IgG (non-specific rabbit IgG as control) with ProteinG paramagnetic microbeads, lysate of ELC1-HA expressing parasites; eluates stained with Sypro Ruby or probed by Western blot with anti-HA
[2] = biological target: HA-tagged Essential Light Chain 1 (Toxoplasma gondii); experiment: co-IP; anti-HA antibody on paramagnetic MicroBeads, lysates of MLC1-HA or ELC1-HA expressing tachyzoites (wild type as control), 20 mM HEPES pH 7.4, 150 mM NaCl, 1% Triton X-100, 0.5% NP-40, 1 h at 4°C; Western blot with antibodies against MyoA, GAP45, MLC1
[3] = biological target: HA-tagged Myosin Light Chain 1 (Toxoplasma gondii); experiment: as above

| Molecule | binding [1] | binding [2] | binding [3] |
| --- | --- | --- | --- |
| HA-tagged Essential Light Chain 1 (Toxoplasma gondii) | binds | – | – |
| B1 | – | binds | binds |

From publication PMC3182922
